Assay results published in paper PMC7515728, “YdiV regulates Escherichia coli ferric uptake by manipulating the DNA-binding ability of Fur in a SlyD-dependent manner” (Nucleic Acids Research, 2020).
Results are given in words; binding and its absence hold for the method and conditions named.

The chains behind the UniProt entries cited, without tags or fusion partners.
UniProt P0A9K9: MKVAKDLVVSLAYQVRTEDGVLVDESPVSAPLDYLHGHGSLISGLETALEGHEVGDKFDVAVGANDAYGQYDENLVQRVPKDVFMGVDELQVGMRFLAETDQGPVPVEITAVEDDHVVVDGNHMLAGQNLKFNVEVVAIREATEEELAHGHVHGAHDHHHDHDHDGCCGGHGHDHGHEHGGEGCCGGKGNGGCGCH

Target: SlyD in the bacterial two-hybrid plasmid pKNT25-slyD (Escherichia coli) (UniProt P0A9K9)
Assay: two-hybrid; bacterial two-hybrid by reconstitution of adenylate cyclase (T18/T25) in E. coli BTH101; LB-X-Gal plates and β-galactosidase assay (Miller method)

B1: YdiV in the bacterial two-hybrid plasmid pCH363-ydiV (protein, UniProt P76204 1-237)
chain: MKIFLENLYHSDCYFLPIRDNQQVLVGVELITHFSSEDGTVRIPTSRVIAQLTEEQHWQLFSEQLELLKSCQHFFIQHKLFAWLNLTPQVATLLLERDNYAGELLKYPFIELLINENYPHLNEGKDNRGLLSLSQVYPLVLGNLGAGNSTMKAVFDGLFTRVMLDKSFIQQQITHRSFEPFIRAIQAQISPCCNCIIAGGIDTAEILAQITPFDFHALQGCLWPAVPINQITTLVQR
  binding: no binding
